Entries after “also recorded” stand apart in the source; their conditions may differ. For part of these data: At least one compound was matched to its structure with a doubt left. Some of these results come from one statement about several compounds together.
Assays:
Hsp70 = assay: Western blot of Hsp70 protein levels; format: cell-based, human; settings: after 24 h
Akt = assay: Western blot of Hsp90 client protein Akt in Panc-1 cells; format: cell-based, human
Method: (§1) The levels of Akt and Cdk4, two well-known Hsp90 clients, were measured. Celastrol decreased the protein levels of Akt and Cdk4 in a concentration- and time-dependent manner.
(§2) Western Blot. The general procedure for the Western blot analysis was briefly described as follows. After drug treatment, cells were washed twice with ice-cold phosphate-buffered saline (PBS), scraped into lysis buffer (20 mM Tris, pH 7.5, 1% Nonidet P-40, 150 mM NaCl, 5 mM EDTA, 1 mM Na3VO4) supplemented with a protease inhibitor mixture (Sigma, added at a 1:100 dilution), and incubated on ice for 20 min. The lysate was then centrifuged at 14,000×g for 10 min. Equal amounts of total protein were subjected to SDS-PAGE and transferred onto nitrocellulose membranes and probed with appropriate antibodies.

The chains behind the UniProt entries cited, without tags or fusion partners.
UniProt P08238, whole entry: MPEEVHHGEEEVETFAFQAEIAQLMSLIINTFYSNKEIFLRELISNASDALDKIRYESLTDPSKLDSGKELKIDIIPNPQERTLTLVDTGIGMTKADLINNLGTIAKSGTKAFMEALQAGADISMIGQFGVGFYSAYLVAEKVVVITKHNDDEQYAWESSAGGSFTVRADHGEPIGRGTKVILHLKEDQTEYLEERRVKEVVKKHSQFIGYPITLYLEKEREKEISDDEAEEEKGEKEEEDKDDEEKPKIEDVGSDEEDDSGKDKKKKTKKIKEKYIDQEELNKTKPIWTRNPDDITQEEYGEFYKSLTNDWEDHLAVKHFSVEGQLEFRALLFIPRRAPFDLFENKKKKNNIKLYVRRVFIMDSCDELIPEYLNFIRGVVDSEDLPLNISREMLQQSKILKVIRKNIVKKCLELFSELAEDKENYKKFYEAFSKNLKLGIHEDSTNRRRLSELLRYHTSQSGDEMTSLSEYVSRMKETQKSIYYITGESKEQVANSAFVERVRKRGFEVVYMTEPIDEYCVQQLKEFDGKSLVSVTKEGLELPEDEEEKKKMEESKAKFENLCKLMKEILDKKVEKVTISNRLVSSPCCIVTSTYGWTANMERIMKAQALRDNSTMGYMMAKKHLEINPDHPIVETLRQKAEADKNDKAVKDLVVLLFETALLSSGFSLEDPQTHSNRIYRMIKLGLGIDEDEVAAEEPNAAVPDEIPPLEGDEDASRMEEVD

Cdk4 = assay: Western blot of Hsp90 client protein Cdk4 in Panc-1 cells; format: cell-based, human
Method: as §1, §2

p27^Kip1 = assay: Western blot of proteasome target protein p27 in Panc-1 cells; format: cell-based, human
Hsp90-p23 complex = assay: Immunoprecipitation of Hsp90 or p23 and Western blot for the partner; format: cell-based, human; settings: Panc-1 cells, 10 μM
Panc-1 xenograft tumor = assay: Panc-1 xenograft mouse model; format: in vivo, mice
Method: After the last injection, celastrol inhibited 80% of tumor growth (p<0.001) (FIG. 6A).
Xenograft Mouse Model. 4 to 6-week old nu/nu athymic female mice were obtained from Charles River Laboratories (Charles River, Wilmington, Mass.). The human Panc-1 cells (5-10×10^6) were mixed with reconstituted basement membrane (Collaborative Research, Bedford, Mass.) and implanted to the right and left flanks of the mice. Tumor volumes were calculated with the formula: width^2×length/2. When tumors reached 100 mm^3, animals were randomized into different groups for treatment (n=6/group).
Then, the dosing schedule was changed to one injection per three days. Tumor sizes and body weights were measured twice a week.

IκB-α = assay: Western blot of proteasome target protein IκB-α in Panc-1 cells; format: cell-based, human
Hsp90-Cdc37 complex = assay: Immunoprecipitation of Hsp90 and Western blot for Cdc37; format: cell-based, human; settings: Panc-1 cells, 10 μM
Hsp90-Hop complex = assay: Immunoprecipitation of Hsp90 and Western blot for Hop; format: cell-based, human; settings: Panc-1 cells, 10 μM
human Hsp90β protein = human Hsp90β protein (Homo sapiens, UniProt P08238); assay: ATP-Sepharose binding (pull-down) assay; settings: 0.1 to 100 μM
[1] = various concentrations (FIG. 4A)

Row | SMILES | induction of Hsp70 protein levels (Hsp70; 5 and 10 μM) | Akt degradation in comparison with celastrol (Akt; [1]) | Cdk4 degradation in comparison with celastrol (Cdk4; [1]) | protein level of p27^Kip1 (p27^Kip1) | induction of Hsp70 protein levels (Hsp70; 5 μM) | Hsp90 in the p23 complex immunoprecipitated by anti-p23 antibody (Hsp90-p23 complex; 1 to 24 hrs) | p23 in the Hsp90 complex immunoprecipitated by anti-Hsp90 antibody (Hsp90-p23 complex; up to 24 h) | anticancer effect compared with geldanamycin (Panc-1 xenograft tumor; 3 mg/kg i.p. each) | tumor size compared with the control group (Panc-1 xenograft tumor; 3 mg/kg i.p., three weeks after the last injection) | level of Akt (Akt; 1 μM, 24-h treatment) | level of Cdk4 (Cdk4; 1 μM, 24-h treatment) | protein level of IκB-α (IκB-α) | amount of Cdc37 in the immunoprecipitated Hsp90 complex (Hsp90-Cdc37 complex) | amount of Cdc37 in the immunoprecipitated Hsp90 complex (Hsp90-Cdc37 complex; listed as Celastrol) | amount of Hop in the immunoprecipitated Hsp90 complex (Hsp90-Hop complex) | effect on the ATP binding to Hsp90 (human Hsp90β protein) | effect on the ATP binding to Hsp90 (human Hsp90β protein; listed as Celastrol)
1 | COC1=C2C[C@@H](C)C[C@H](OC)[C@H](O)[C@@H](C)/C=C(\C)[C@H](OC(N)=O)[C@@H](OC)/C=C\C=C(/C)C(=O)NC(=CC1=O)C2=O [geldanamycin, reference compound] | more than 12 fold | induced similar levels of Akt and Cdk4 degradation | induced similar levels of Akt and Cdk4 degradation | showed similar effect as celastrol | – | – | – | – | – | – | – | – | – | – | – | – | –
2 | CC1=C(O)C(=O)C=C2C1=CC=C1[C@@]2(C)CC[C@@]2(C)[C@@H]3C[C@](C)(C(=O)O)CC[C@]3(C)CC[C@]12C [celastrol, (9b,13a,14b,20a)-3-Hydroxy-9,13-dimethyl-2-oxo-24,25,26-trinoroleana-1(10),3,5,7-tertraen-29-oic acid] | – | – | – | increased the accumulation | more than 12 fold | did not change the Hsp90 levels | p23 was still present | slightly better than that of geldanamycin | four to five folds smaller | slightly decreased | slightly decreased | increased the accumulation | disrupted the protein-protein interaction of Hsp90-Cdc37 | decreases the amount of Cdc37 proteins associated with Hsp90; also recorded: decreased the amount of Cdc37 dramatically | did not change the Hsp90-Hop Interaction | did not interfere; also recorded: did not have any effect | does not inhibit ATP binding to Hsp90
